Reference: article PMC10572602, “Molecular Mechanism of STIL Coiled-Coil Domain Oligomerization” (International Journal of Molecular Sciences, 2023)

Assay: X-ray crystal structure
Settings: for mean RMSD of Q729L dimer to L736E dimer: over an average of 58 Cα atoms

Row | Substance | oligomeric state in the crystal (crystallized at 1.5 mM peptide, 50 mM cadmium chloride, 50 mM sodium acetate, 15% PEG 400, pH 4.6, 20 °C) | mean RMSD of Q729L dimer to L736E dimer | oligomeric state in the crystal (crystallized at 0.9 mM peptide, 50 mM Tris, pH 8.0, 10% v/v MPD, 4 °C) | RMSD between the three biological assemblies (over an average of 59 Cαs) | RMSD to PDB 5lhw (three biological assemblies of L736E dimer, over an average of 47 Cαs)
1 | L SPDAYRF LTELDRQ LRLLQAQ IQRLLEA QSL-NH2 [STIL CCD718–749 Q729L, STIL CCD peptide with stabilising Q729L mutation; PDB 8oyl] | anti-parallel tetramer | 1.6 ± 0.5 Å |  |  | 
2 | L SPDAYRF LTEQDRQ LRLEQAQ IQRLLEA QSL-NH2 [STIL CCD718–749 L736E, STIL CCD peptide with destabilising L736E mutation; PDB 8oyk] |  | 1.6 ± 0.5 Å | antiparallel dimer | 1.5 ± 0.5 Å | 6.1 ± 0.3 Å
